Key:
Type in all cases: cell-based, Plasmodium falciparum
[1] = tested on: PfATP4-Mut1 (PfATP4 V178I, parent W2); test: Cross-resistance EC50 assay, PfATP4-Mut1; conditions: hypoxanthine 48-hour assay; synchronized parasites; 96-well format; strain PfATP4 Mut1
Procedure, shortened: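 EC50 fold shifts were derived from blood-stage growth assays run in parallel on mutant and parent strains within one laboratory. Growth was measured either by tritiated hypoxanthine uptake (48 h) or SYBR Green I staining (72 h).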

[2] = tested on: DHODH (E182D, parent 3D7); test: Cross-resistance EC50 assay, DHODH; conditions: SYBR green 72 hour assay; synchronized parasites; 384-well format; strain DHODH (3D7 parent)
Procedure, shortened: (§1)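 Parasitized RBCs exposed to serial drug dilutions; growth read by ³H-hypoxanthine uptake over 48 h or SYBR Green I over 72 h at 37 °C. EC50s from triplicate runs; resistance judged as fold shift against the parent strain assayed the same way.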

[3] = tested on: TM90C2A (DHFR, folate pathway; compared with 3D7); test: Cross-resistance EC50 assay, TM90C2A; design: unit not given beside the values; conditions: hypoxanthine 48-hour assay; synchronized parasites; 96-well format; strain TM90C2A
Procedure, shortened: as §1

[4] = tested on: hsp90 (D88Y, parent Dd2); test: Cross-resistance EC50 assay, hsp90; conditions: SYBR green 72 hour assay; synchronized parasites; 384-well format; strain HSP90 (Dd2 parent)
Procedure, shortened: as §1

Row | SMILES | PfATP4 Mut1 (W2F6 Parent) Average Hill Slope [1] | DHODH (3D7 Parent) Average Hill Slope [2] | TM90C2A (3D7 Parent) Average Hill Slope [3] | HSP90 (Dd2 Parent) Average Hill Slope [4]
1 | Cc1ccc(S(=O)(=O)n2cc(-c3ccnc(N)c3)c3cc(Br)cnc32)cc1 [MMV024114] | 1.20 | 4.78 | 3.25 | 3.13
2 | COCCNCC(O)Cn1c2ccc(Cl)cc2c2cc(Cl)ccc21 (stereo not drawn) [MMV019017] | 1.95 | 2.17 | 1.89 | 1.66
3 | COc1ccccc1CNC(=O)CCn1c(=O)[nH]c2ccsc2c1=O [MMV019066] | 0.54 | 1.16 | 0.82 | 0.95
4 | CN(C)CCCN(C)C(=O)C1Cc2cc(-c3ccccc3)ccc2N1S(=O)(=O)c1ccccc1 (stereo not drawn) [MMV028895] | 1.13 | 2.83 | 1.59 | 3.38
5 | COc1cc(-c2nc(-c3ccccc3)c(-c3ccccc3)[nH]2)ccc1OCCN(C)C [MMV027496] | 3.18 | 5.57 | 1.68 | 25.1
6 | Nc1ccc(-c2nc3cc(Oc4ccc(Oc5ccc6[nH]c(-c7ccc(N)cc7)nc6c5)cc4)ccc3[nH]2)cc1 [MMV011895] | 2.35 | 5.56 | 6.55 | 2.47

From publication PMC4912613, “A broad analysis of resistance development in the malaria parasite” (Nature Communications, 2016)
